Results are given in words; binding and its absence hold for the method and conditions named. Some results given as binding are weak or reduced against the parent protein; the word gives no strength.
Tests used:
[1] = target: K106C Ec-MscL (Escherichia coli mechanosensitive channel of large conductance, cysteine mutant) (Escherichia coli) (UniProt P0A742); test: non-reducing SDS-PAGE with Western blot (dimer band); purified His-tagged cysteine mutants, 5 ug in 50 mM KPi pH 7.5, 150 mM NaCl, 4 mM DM, 22°C; nonreducing sample buffer with iodoacetamide; blot with Penta.His; samples of the MTS-PEG5000 versus DHS competition experiment, mock lanes included; both purified
[2] = target: A110C Ec-MscL (Escherichia coli mechanosensitive channel of large conductance, cysteine mutant) (Escherichia coli) (UniProt P0A742); test: as above

Row | binding [1] | binding [2] | Binder
1 | binds weakly |  | K106C Ec-MscL (Escherichia coli mechanosensitive channel of large conductance, cysteine mutant) (protein, UniProt P0A742 1-136) MSIIKEFREFAMRGNVVDLAVGVIIGAAFGKIVSSLVADIIMPPLGLLIGGIDFKQFAVTLRDAQGDIPAVVMHYGVFIQNVFDFLIVAFAIFMAIKLINKLNRKCEEPAAAPAPTKEEVLLTEIRDLLKEQNNRS
2 |  | binds weakly | A110C Ec-MscL (Escherichia coli mechanosensitive channel of large conductance, cysteine mutant) (protein, UniProt P0A742 1-136) MSIIKEFREFAMRGNVVDLAVGVIIGAAFGKIVSSLVADIIMPPLGLLIGGIDFKQFAVTLRDAQGDIPAVVMHYGVFIQNVFDFLIVAFAIFMAIKLINKLNRKKEEPCAAPAPTKEEVLLTEIRDLLKEQNNRS

From paper PMC4900634 (PLoS Biology, 2016)
